Results on 16 substances are retold here after the supplement of paper PMC3353916.

For the data set, the system named is Sindbis virus TE/5'2J-GFP. Nature of the data set: percent infected (GFP+ in RFP+ ISG-expressing cells); higher = more infection (less antiviral activity). The note with it: experiment: primary screen (single well).

Single values of this set are uncertain.

As for “MEEGMNVLHDFGIQSTHYLQVNYQDSQDWFILVSVIADLRNAFYVLFPIWFHLQEAVGIKLLWVAVIGDWLNLVFKWILFGQRPYWWVLDTDYYSNTSVPLIKQFPVTCETGPGSPSGHAMGTAGVYYVMVTSTLSIFQGKIKPTYRFRCLNVILWLGFWAVQLNVCLSRIYLAAHFPHQVVAGVLSGIAVAETFSHIHSIYNASLKKYFLITFFLFSFAIGFYLLLKGLGVDLLWTLEKAQRWCEQPEWVHIDTTPFASLLKNLGTLFGLGLALNSSMYRESCKGKLSKWLPFRLSSIVASLVLLHVFDSLKPPSQVELVFYVLSFCKSAVVPLASVSVIPYCLAQVLGQPHKKSL [G6PC]”, for the setting “BHK/NZAP-Zeo (ZAP)”, the percent infected turned out to be 94.8%. On to “MCSTSGCDLEEIPLDDDDLNTIEFKILAYYTRHHVFKSTPALFSPKLLRTRSLSQRGLGNCSANESWTEVSWPCRNSQSSEKAINLGKKKSSWKAFFGVVEKEDSQSTPAKVSAQGQRTLEYQDSHSQQWSRCLSNVEQCLEHEAVDPKVISIANRVAEIVYSWPPPQATQAGGFKSKEIFVTEGLSFQLQGHVPVASSSKKDEEEQILAKIVELLKYSGDQLERKLKKDKALMGHFQDGLSYSVFKTITDQVLMGVDPRGESEVKAQGFKAALVIDVTAKLTAIDNHPMNRVLGFGTKYLKENFSPWIQQHGGWEKILGISHEEVD [BCL2L14]”, for which the percent infected came out at 87.9% (BHK/HA-Zeo (control)) and 89.7% (BHK/NZAP-Zeo (ZAP)). Turning to “MVVSEVDIAKADPAAASHPLLLNGDATVAQKNPGSVAENNLCSQYEEKVRPCIDLIDSLRALGVEQDLALPAIAVIGDQSSGKSSVLEALSGVALPRGSGIVTRCPLVLKLKKLVNEDKWRGKVSYQDYEIEISDASEVEKEINKAQNAIAGEGMGISHELITLEISSRDVPDLTLIDLPGITRVAVGNQPADIGYKIKTLIKKYIQRQETISLVVVPSNVDIATTEALSMAQEVDPEGDRTIGILTKPDLVDKGTEDKVVDVVRNLVFHLKKGYMIVKCRGQQEIQDQLSLSEALQREKIFFENHPYFRDLLEEGKATVPCLAEKLTSELITHICKSLPLLENQIKETHQRITEELQKYGVDIPEDENEKMFFLIDKVNAFNQDITALMQGEETVGEEDIRLFTRLRHEFHKWSTIIENNFQEGHKILSRKIQKFENQYRGRELPGFVNYRTFETIVKQQIKALEEPAVDMLHTVTDMVRLAFTDVSIKNFEEFFNLHRTAKSKIEDIRAEQEREGEKLIRLHFQMEQIVYCQDQVYRGALQKVREKELEEEKKKKSWDFGAFQSSSATDSSMEEIFQHLMAYHQEASKRISSHIPLIIQFFMLQTYGQQLQKAMLQLLQDKDTYSWLLKERSDTSDKRKFLKERLARLTQARRRLAQFPG [MX1]”, the percent infected is, setting by setting: (BHK/HA-Zeo (control)) 96.6%; (BHK/NZAP-Zeo (ZAP)) 90.6%. Taken in the same sequence, the figures for “MLLLTRSPTAWHRLSQLKPRVLPGTLGGQALHLRSWLLSRQGPAETGGQGQPQGPGLRTRLLITGLFGAGLGGAWLALRAEKERLQQQKRTEALRQAAVGQGDFHLLDHRGRARCKADFRGQWVLMYFGFTHCPDICPDELEKLVQVVRQLEAEPGLPPVQPVFITVDPERDDVEAMARYVQDFHPRLLGLTGSTKQVAQASHSYRVYYNAGPKDEDQDYIVDHSIAIYLLNPDGLFTDYYGRSRSAEQISDSVRRHMAAFRSVLS [SCO2]” were 97.6% and 94.2%. Taken in the same sequence, the figures for STAT2 were 98.5% and 96.8%.

For “MLQRGLWPWRTRLLPTPGTWRPARPWPLPPPPQVLRVKLCGNVKYYQSHHYSTVVPPDEITVIYRHGLPLVTLTLPSRKERCQFVVKPMLSTVGSFLQDLQNEDKGIKTAAIFTADGNMISASTLMDILLMNDFKLVINKIAYDVQCPKREKPSNEHTAEMEHMKSLVHRLFTILHLEESQKKREHHLLEKIDHLKEQLQPLEQVKAGIEAHSEAKTSGLLWAGLALLSIQGGALAWLTWWVYSWDIMEPVTYFITFANSMVFFAYFIVTRQDYTYSAVKSRQFLQFFHKKSKQQHFDVQQYNKLKEDLAKAKESLKQARHSLCLQMQVEELNEKN [CCDC109B]”, the percent infected stood at 92.2% (BHK/HA-Zeo (control)) and 80.6% (BHK/NZAP-Zeo (ZAP)). The substance “MDEDEKDRAKRASRNKSEKKRRDQFNVLIKELSSMLPGNTRKMDKTTVLEKVIGFLQKHNEVSAQTEICDIQQDWKPSFLSNEEFTQLMLEALDGFIIAVTTDGSIIYVSDSITPLLGHLPSDVMDQNLLNFLPEQEHSEVYKILSSHMLVTDSPSPEYLKSDSDLEFYCHLLRGSLNPKEFPTYEYIKFVGNFRSYNNVPSPSCNGFDNTLSRPCRVPLGKEVCFIATVRLATPQFLKEMCIVDEPLEEFTSRHSLEWKFLFLDHRAPPIIGYLPFEVLGTSGYDYYHIDDLELLARCHQHLMQFGKGKSCCYRFLTKGQQWIWLQTHYYITYHQWNSKPEFIVCTHSVVSYADVRVERRQELALEDPPSEALHSSALKDKGSSLEPRQHFNTLDVGASGLNTSHSPSASSRSSHKSSHTAMSEPTSTPTKLMAEASTPALPRSATLPQELPVPGLSQAATMPAPLPSPSSCDLTQQLLPQTVLQSTPAPMAQFSAQFSMFQTIKDQLEQRTRILQANIRWQQEELHKIQEQLCLVQDSNVQMFLQQPAVSLSFSSTQRPEAQQQLQQRSAAVTQPQLGAGPQLPGQISSAQVTSQHLLRESSVISTQGPKPMRSSQLMQSSGRSGSSLVSPFSSATAALPPSLNLTTPASTSQDASQCQPSPDFSHDRQLRLLLSQPIQPMMPGSCDARQPSEVSRTGRQVKYAQSQTVFQNPDAHPANSSSAPMPVLLMGQAVLHPSFPASQPSPLQPAQARQQPPQHYLQVQAPTSLHSEQQDSLLLSTYSQQPGTLGYPQPPPAQPQPLRPPRRVSSLSESSGLQQPPR [NPAS2]” showed a percent infected (BHK/NZAP-Zeo (ZAP)) of 92%. Turning to “MEKLLCFLVLTSLSHAFGQTDMSRKAFVFPKESDTSYVSLKAPLTKPLKAFTVCLHFYTELSSTRGYSIFSYATKRQDNEILIFWSKDIGYSFTVGGSEILFEVPEVTVAPVHICTSWESASGIVEFWVDGKPRVRKSLKKGYTVGAEASIILGQEQDSFGGNFEGSQSLVGDIGNVNMWDFVLSPDEINTIYLGGPFSPNVLNWRALKYEVQGEVFTKPQLWP [CRP]”, the percent infected runs as follows: (BHK/HA-Zeo (control)) 89.8%; (BHK/NZAP-Zeo (ZAP)) 81.3%. As to “MPRCPAGAMDEGPVDLRTRPKAAGLPGAALPLRKRPLRAPSPEPAAPRGAAGLVVPLDPLRGGCDLPAVPGPPHGLARPEALYYPGALLPLYPTRAMGSPFPLVNLPTPLYPMMCPMEHPLSADIAMATRADEDGDTPLHIAVVQGNLPAVHRLVNLFQQGGRELDIYNNLRQTPLHLAVITTLPSVVRLLVTAGASPMALDRHGQTAAHLACEHRSPTCLRALLDSAAPGTLDLEARNYDGLTALHVAVNTECQETVQLLLERGADIDAVDIKSGRSPLIHAVENNSLSMVQLLLQHGANVNAQMYSGSSALHSASGRGLLPLVRTLVRSGADSSLKNCHNDTPLMVARSRRVIDILRGKATRPASTSQPDPSPDRSANTSPESSSRLSSNGLLSASPSSSPSQSPPRDPPGFPMAPPNFFLPSPSPPAFLPFAGVLRGPGRPVPPSPAPGGS [BCL3]”, the percent infected is 98% (BHK/HA-Zeo (control)) and 97.6% (BHK/NZAP-Zeo (ZAP)). Taken in the same sequence, the figures for “MGKSASKQFHNEVLKAHNEYRQKHGVPPLKLCKNLNREAQQYSEALASTRILKHSPESSRGQCGENLAWASYDQTGKEVADRWYSEIKNYNFQQPGFTSGTGHFTAMVWKNTKKMGVGKASASDGSSFVVARYFPAGNVVNEGFFEENVLPPKK [C9orf19]” were 97.8% and 94.3%. Taken in the same sequence, the figures for “MASTTSTKKMMEEATCSICLSLMTNPVSINCGHSYCHLCITDFFKNPSQKQLRQETFCCPQCRAPFHMDSLRPNKQLGSLIEALKETDQEMSCEEHGEQFHLFCEDEGQLICWRCERAPQHKGHTTALVEDVCQGYKEKLQKAVTKLKQLEDRCTEQKLSTAMRITKWKEKVQIQRQKIRSDFKNLQCFLHEEEKSYLWRLEKEEQQTLSRLRDYEAGLGLKSNELKSHILELEEKCQGSAQKLLQNVNDTLSRSWAVKLETSEAVSLELHTMCNVSKLYFDVKKMLRSHQVSVTLDPDTAHHELILSEDRRQVTRGYTQENQDTSSRRFTAFPCVLGCEGFTSGRRYFEVDVGEGTGWDLGVCMENVQRGTGMKQEPQSGFWTLRLCKKKGYVALTSPPTSLHLHEQPLLVGIFLDYEAGVVSFYNGNTGCHIFTFPKASFSDTLRPYFQVYQYSPLFLPPPGD [TRIM38]” were 98.4% and 96.4%. Taken in the same sequence, the figures for “MASGRARCTRKLRNWVVEQVESGQFPGVCWDDTAKTMFRIPWKHAGKQDFREDQDAAFFKAWAIFKGKYKEGDTGGPAVWKTRLRCALNKSSEFKEVPERGRMDVAEPYKVYQLLPPGIVSGQPGTQKVPSKRQHSSVSSERKEEEDAMQNCTLSPSVLQDSLNNEEEGASGGAVHSDIGSSSSSSSPEPQEVTDTTEAPFQGDQRSLEFLLPPEPDYSLLLTFIYNGRVVGEAQVQSLDCRLVAEPSGSESSMEQVLFPKPGPLEPTQRLLSQLERGILVASNPRGLFVQRLCPIPISWNAPQAPPGPGPHLLPSNECVELFRTAYFCRDLVRYFQGLGPPPKFQVTLNFWEESHGSSHTPQNLITVKMEQAFARYLLEQTPEQQAAILSLV [IRF9]” were 82.8% and 74.3%. Consider PCTK2, for which the percent infected runs as follows: (BHK/HA-Zeo (control)) 96.8%; (BHK/NZAP-Zeo (ZAP)) 80.1%. Consider “MSSSGTPDLPVLLTDLKIQYTKIFINNEWHDSVSGKKFPVFNPATEEELCQVEEGDKEDVDKAVKAARQAFQIGSPWRTMDASERGRLLYKLADLIERDRLLLATMESMNGGKLYSNAYLNDLAGCIKTLRYCAGWADKIQGRTIPIDGNFFTYTRHEPIGVCGQIIPWNFPLVMLIWKIGPALSCGNTVVVKPAEQTPLTALHVASLIKEAGFPPGVVNIVPGYGPTAGAAISSHMDIDKVAFTGSTEVGKLIKEAAGKSNLKRVTLELGGKSPCIVLADADLDNAVEFAHHGVFYHQGQCCIAASRIFVEESIYDEFVRRSVERAKKYILGNPLTPGVTQGPQIDKEQYDKILDLIESGKKEGAKLECGGGPWGNKGYFVQPTVFSNVTDEMRIAKEEIFGPVQQIMKFKSLDDVIKRANNTFYGLSAGVFTKDIDKAITISSALQAGTVWVNCYGVVSAQCPFGGFKMSGNGRELGEYGFHEYTEVKTVTVKISQKNS [ALDH1A1]”, for which the percent infected (BHK/HA-Zeo (control)) amounted to 93.8%.

For “MGLKLNGRYISLILAVQIAYLVQAVRAAGKCDAVFKGFSDCLLKLGDSMANYPQGLDDKTNIKTVCTYWEDFHSCTVTALTDCQEGAKDMWDKLRKESKNLNIQGSLFELCGSGNGAAGSLLPAFPVLLVSLSAALATWLSF [NRN1]”, the percent infected is, setting by setting: (BHK/HA-Zeo (control)) 91%; (BHK/NZAP-Zeo (ZAP)) 90.8%. Taken in the same sequence, the figures for “MEGAALLRVSVLCIWMSALFLGVGVRAEEAGARVQQNVPSGTDTGDPQSKPLGDWAAGTMDPESSIFIEDAIKYFKEKVSTQNLLLLLTDNEAWNGFVAAAELPRNEADELRKALDNLARQMIMKDKNWHDKGQQYRNWFLKEFPRLKSELEDNIRRLRALADGVQKVHKGTTIANVVSGSLSISSGILTLVGMGLAPFTEGGSLVLLEPGMELGITAALTGITSSTMDYGKKWWTQAQAHDLVIKSLDKLKEVREFLGENISNFLSLAGNTYQLTRGIGKDIRALRRARANLQSVPHASASRPRVTEPISAESGEQVERVNEPSILEMSRGVKLTDVAPVSFFLVLDVVYLVYESKHLHEGAKSETAEELKKVAQELEEKLNILNNNYKILQADQEL [APOL1]” were 98.2% and 97.3%.
